Measured values as given in article doi:10.1101/526152.

Protein sequences, listed by entry. Tags and fused reporters are not part of them. Lines headed by an entry give the natural chain unless they say otherwise; changes in a name come on top.
UniProt Q96QB1: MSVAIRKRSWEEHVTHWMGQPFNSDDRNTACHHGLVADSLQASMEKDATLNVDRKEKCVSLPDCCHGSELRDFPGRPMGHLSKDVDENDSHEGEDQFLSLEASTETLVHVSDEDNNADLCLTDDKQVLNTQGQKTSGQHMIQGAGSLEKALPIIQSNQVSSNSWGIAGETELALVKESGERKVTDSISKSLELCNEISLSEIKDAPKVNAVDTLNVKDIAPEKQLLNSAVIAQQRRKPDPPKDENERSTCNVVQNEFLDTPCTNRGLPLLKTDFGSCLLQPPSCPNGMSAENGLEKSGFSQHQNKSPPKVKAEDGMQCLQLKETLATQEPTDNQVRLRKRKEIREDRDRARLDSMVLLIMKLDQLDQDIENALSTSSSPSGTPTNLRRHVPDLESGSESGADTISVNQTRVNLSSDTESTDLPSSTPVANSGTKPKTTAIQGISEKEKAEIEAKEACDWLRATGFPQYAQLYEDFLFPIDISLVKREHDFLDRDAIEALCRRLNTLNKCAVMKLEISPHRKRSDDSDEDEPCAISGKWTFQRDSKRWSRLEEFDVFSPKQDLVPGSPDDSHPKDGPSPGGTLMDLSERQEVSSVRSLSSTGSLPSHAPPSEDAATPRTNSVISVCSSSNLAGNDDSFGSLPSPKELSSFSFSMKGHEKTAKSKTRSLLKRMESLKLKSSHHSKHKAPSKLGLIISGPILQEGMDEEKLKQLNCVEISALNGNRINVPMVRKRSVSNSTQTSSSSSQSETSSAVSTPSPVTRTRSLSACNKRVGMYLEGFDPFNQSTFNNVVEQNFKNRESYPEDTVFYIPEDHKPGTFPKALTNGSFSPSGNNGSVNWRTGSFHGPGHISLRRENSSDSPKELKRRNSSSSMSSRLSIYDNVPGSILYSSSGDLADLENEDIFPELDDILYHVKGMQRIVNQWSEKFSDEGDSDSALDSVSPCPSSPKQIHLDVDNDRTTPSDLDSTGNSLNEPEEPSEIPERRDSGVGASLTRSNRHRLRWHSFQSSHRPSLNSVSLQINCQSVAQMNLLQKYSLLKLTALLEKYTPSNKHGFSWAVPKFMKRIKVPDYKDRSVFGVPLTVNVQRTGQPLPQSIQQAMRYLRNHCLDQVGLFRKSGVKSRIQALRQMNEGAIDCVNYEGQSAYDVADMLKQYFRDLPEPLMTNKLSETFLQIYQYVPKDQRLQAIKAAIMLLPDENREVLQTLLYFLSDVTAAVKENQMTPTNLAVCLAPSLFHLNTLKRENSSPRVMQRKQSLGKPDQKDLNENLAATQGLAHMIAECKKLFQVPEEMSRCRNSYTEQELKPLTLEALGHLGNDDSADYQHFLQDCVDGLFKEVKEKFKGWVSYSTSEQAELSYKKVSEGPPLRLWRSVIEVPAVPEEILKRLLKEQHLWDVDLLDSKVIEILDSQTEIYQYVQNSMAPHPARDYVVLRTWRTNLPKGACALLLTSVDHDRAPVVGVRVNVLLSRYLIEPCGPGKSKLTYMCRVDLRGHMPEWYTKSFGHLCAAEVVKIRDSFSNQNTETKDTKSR
UniProt P46940: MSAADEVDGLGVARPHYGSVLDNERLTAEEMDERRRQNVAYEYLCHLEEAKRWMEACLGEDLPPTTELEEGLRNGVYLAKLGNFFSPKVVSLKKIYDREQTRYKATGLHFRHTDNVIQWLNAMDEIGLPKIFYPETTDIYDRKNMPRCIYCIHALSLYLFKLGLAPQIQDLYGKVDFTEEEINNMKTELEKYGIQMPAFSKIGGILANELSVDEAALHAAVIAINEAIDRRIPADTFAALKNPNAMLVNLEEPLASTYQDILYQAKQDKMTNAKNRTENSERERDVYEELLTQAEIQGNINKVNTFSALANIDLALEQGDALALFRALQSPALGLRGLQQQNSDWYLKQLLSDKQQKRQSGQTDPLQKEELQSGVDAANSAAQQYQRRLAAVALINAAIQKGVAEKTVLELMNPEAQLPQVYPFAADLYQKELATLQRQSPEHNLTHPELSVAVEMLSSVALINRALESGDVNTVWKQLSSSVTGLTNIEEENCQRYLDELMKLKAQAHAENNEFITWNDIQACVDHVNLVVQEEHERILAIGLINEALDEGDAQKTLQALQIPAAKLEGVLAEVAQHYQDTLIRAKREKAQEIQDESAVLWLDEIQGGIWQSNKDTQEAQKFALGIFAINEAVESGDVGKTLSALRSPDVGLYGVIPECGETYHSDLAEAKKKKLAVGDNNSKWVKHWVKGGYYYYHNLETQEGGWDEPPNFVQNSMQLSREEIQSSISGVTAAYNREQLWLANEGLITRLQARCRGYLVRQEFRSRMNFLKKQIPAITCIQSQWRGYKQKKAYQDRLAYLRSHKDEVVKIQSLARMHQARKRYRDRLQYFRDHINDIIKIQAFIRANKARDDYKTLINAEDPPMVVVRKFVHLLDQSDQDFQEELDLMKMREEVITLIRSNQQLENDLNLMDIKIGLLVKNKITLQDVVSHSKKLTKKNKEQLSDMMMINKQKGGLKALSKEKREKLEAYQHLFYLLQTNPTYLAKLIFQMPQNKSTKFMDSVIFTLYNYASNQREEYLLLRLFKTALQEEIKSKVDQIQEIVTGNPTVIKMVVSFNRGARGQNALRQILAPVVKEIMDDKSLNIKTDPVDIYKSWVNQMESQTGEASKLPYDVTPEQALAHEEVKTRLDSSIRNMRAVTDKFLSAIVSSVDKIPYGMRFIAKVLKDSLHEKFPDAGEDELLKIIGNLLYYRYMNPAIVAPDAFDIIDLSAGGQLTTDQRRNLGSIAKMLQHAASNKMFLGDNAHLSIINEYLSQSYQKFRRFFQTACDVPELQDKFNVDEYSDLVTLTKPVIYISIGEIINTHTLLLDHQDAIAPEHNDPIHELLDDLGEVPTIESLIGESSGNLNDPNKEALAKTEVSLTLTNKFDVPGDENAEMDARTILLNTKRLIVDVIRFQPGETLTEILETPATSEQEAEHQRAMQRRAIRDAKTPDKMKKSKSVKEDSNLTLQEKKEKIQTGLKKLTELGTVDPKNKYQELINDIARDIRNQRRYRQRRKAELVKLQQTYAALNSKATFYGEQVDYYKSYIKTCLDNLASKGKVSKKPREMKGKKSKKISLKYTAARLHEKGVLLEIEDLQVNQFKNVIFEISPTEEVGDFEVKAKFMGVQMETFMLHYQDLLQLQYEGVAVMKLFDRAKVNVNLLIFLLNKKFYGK

Biological target: p122RhoGTPase-activating protein (GAP)/deleted in liver cancer-1 (p122RhoGAP/DLC-1) (human (endogenous in skin fibroblasts)) (UniProt Q96QB1)
Experiment: affinity purification with mass spectrometry

Question: With “IQ motif-containing GTPase-activating protein 1 (IQGAP1) (from UniProt P46940 1-1657)” as the substance, how does the binding read?
Answer: binds

Results are given in words; binding and its absence hold for the method and conditions named. Binding seen in cells or lysates may run through a third protein. A yes stands for co-enrichment or nearness to the bait. Other partners may have been found.
